Measured values as given in patent publication US20250163181A1.
These are yes or no findings as the source states them, for the method shown. Some entries that bind do so weakly or less than the wild type.

Assays:
[1] = biological target: prothrombin variant S91A/Y93A (human) (UniProt P00734); assay: ELISA, immobilised antigen, POmAb titrated, OD at 450 nm [panel A]
[2] = biological target: prothrombin variant S91A/Y93A (human) (UniProt P00734); assay: ELISA, antigen coated on the plate, POmAb detected with anti-mouse IgG (gamma)-HRP and TMB, OD at 450 nm [panel C]
[3] = biological target: prothrombin variant S91A/Y93A (human) (UniProt P00734); assay: SPR, POmAb immobilised, prothrombin variant S91A/Y93A flowed at 0-2000 nM, reference-subtracted [panel H]
[4] = biological target: prothrombin variant S91A/Y93A (human) (UniProt P00734); assay: ELISA
[5] = biological target: prothrombin variant S91A/Y93A (human) (UniProt P00734); assay: ELISA, antigen immobilised on the plate, clone detected with anti-mouse IgG (gamma)-HRP, OD at 450 nm
[6] = biological target: prothrombin variant S91A/Y93A (human) (UniProt P00734); assay: SPR

Measured: binding

B1: POmAb (Prothrombin Open monoclonal Antibody) (antibody, mouse IgG1, kappa, V domains shown)
VH: EVHLVESGGGLVKPGGSLKLSCAASGFTFSSYYMYWVRQTPEKRLEWVATISNGGIYTYYLDSVRGRFTISRDNAKNILYLQMSGLSSADSAIYYCTRDGERQGAMDYWGQGTSVTVSS
VL: QIVLTQSPAIMSVSLGERVTMTCIVSSSVSSTYLHWYQQKPGSSPKLWIYSSSNLASGVPTRFSGSGSGTSHSLTISSMEAEDAAAYYCQLYRRSPLTFGAGTKLELKR
binds: all assays above
